Measured values published in the supplement of paper PMC10338343.
± gives the standard deviation. This is a selection; strong and weak results do not stand in their true shares. Many entries were measured with a wide error.

Tested on: EfPiwi piRISC loaded with piRNA #1 (26 nt)
Assay: pre-steady-state target cleavage rate (min^-1); guide: piRNA #1 5'p-UGAGGUAGUAGGUUGUAUAGUAUCCA; MIWI and MILI are mouse PIWI proteins and EfPiwi is from a freshwater sponge; tags in brackets are library labels; higher = faster piRNA-guided slicing of the target
Details: auxiliary factor: 500 nM Ephydatia muelleri Gtsf1
Method: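 Cleave-'n-Seq: a library of target RNAs (target site in constant flanks) at […] was incubated with 1 nM active freshwater sponge Ephydatia fluviatilis Piwi piRISC (synthetic 5'-monophosphorylated piRNA guide) with or without 500 nM EmGtsf1 at 33 °C for 1 min to 16 h. Uncleaved targets were sequenced and the pooled three trials fitted to a burst-and-steady-state model to give the pre-steady-state cleavage rate (min^-1). Sequence is the target site only. Fits with R² ≤ 0 are excluded.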

Sequence | pre-steady-state target cleavage rate
GGAGAGGAUACUAUACAACCGUACUACCUCA | 0.00659 ± 0.0028
GGAGACCUAUGAUAACAACCUACUACCACA | 0.000477 ± 0.013
GGAGACCUAUGAUAUGUACCUUACUACCUCA | 0.000512 ± 0.0086
GGAGACCUAUGAUAACACACCUACUACCUCA | 0.000742 ± 0.01
GGAGACCUAUGAUAUGUUGCUACUACCUUCA | 0.0011 ± 0.0047
GGAGAGGAUACUAAACUACCUACUACCUCA | 0.00323 ± 0.003
GGAGAGGAUACUAUACAACCUAUUACCUCA | 0.153 ± 0.056
GGAGACCAUACUAUAGUACCUACUACCUCA | 0.00189 ± 0.0053
GGAGACCUAUGAAUACACACCUACUACCUCA | 0.000246 ± 0.023
GGAGACCUAUGAUUACAAGGAACUACCUCA | 0.000365 ± 0.0083
GGAGACCUAUGAUAUGUUGGUACUACCUCCA | 0.000192 ± 0.014
GGAGAGGAUACUAUAGAACCUACAACCUCA | 0.00202 ± 0.0024
GGAGACCUAACUAUACAACCAAGUACCUCA | 0.00088 ± 0.009
GGAGACCUAUGAUAUCAUCCUACUACCACA | 0.000157 ± 0.026
GGAGACCUAUGAUAUCAUGGUACUACCUCA | 0.000828 ± 0.0074
GGAGACCUAACUAUACAACCUAGAUCCUCA | 0.000831 ± 0.0052
GGAGACCUAUGAUAUGUUGGUACUACCUUCA | 0.000581 ± 0.007
GGAGACCUAAGUAUACAACCUACAACCUCA | 0.00149 ± 0.0035
GGAGACCUUACUAUACAAGCUACUACCACA | 0.00275 ± 0.0027
GGAGACCUAUGAAUACAACCUAGUACCACA | 0.00134 ± 0.0072

Sequence | pre-steady-state target cleavage rate
GGAGACCUAUGAUAUGUUCCUACUACCUCA [g2:g12:cont:t1A] | 0.000846 ± 0.0053
GGAGACCUAUGAUUAGAACCUACUUCCUCA | 0.000169 ± 0.013
GGAGACCUUACUAUACGAACCUACUACCUCA | 0.00215 ± 0.0036
GGAGACGAUACUAUACAAGCUACUUCCUCA | 0.00404 ± 0.0021
GGAGAGGAUACUUUAGAACCUACUACCUCA | 0.00155 ± 0.0029
GGAGACCUAUGAUUACUACCUACUAGCUCA | 0.000582 ± 0.0051
GGAGACCUAUGUUUACAACCUUCUACCUCA | 0.000855 ± 0.0065
GGAGACGAUACUAAACAACCAACUACCUCA | 0.0024 ± 0.0017
GGAGACGAUACUAUACAUGCUACUACCUCA | 0.00483 ± 0.0015
GGAGACGAUACUAUAUAACCUACUACCUCA | 0.0091 ± 0.0042
GGAGACGAUAGUAUACAACCAACUACCUCA | 0.00204 ± 0.003
GGAGACCUAUCAAUACAACCUUCUACCUCA | 0.00216 ± 0.0051
GGAGUGGAUACUAUACAACCUACUUGCUCA | 0.0047 ± 0.0026
GGAGUGCAUACUAUAGAACCUACUACCUCA | 0.00125 ± 0.0023
GGAGACCUAUGAUAUGAAGGAACUACCUCA | 0.000206 ± 0.013
GGAGACCUAUGAUAACUACCAACUACCUCA | 0.000266 ± 0.013
GGAGACCAUACUAUACUACCUUCUACCUCA | 0.00169 ± 0.0062
GGAGACGAUACUUUACAACCAACUACCUCA | 0.00358 ± 0.0022
GGAGAGGAUACUAUUCAACCUACUACGUCA | 0.00309 ± 0.0023
GGAGACCUAUGAAUACAACCUACUACCUAA | 0.000866 ± 0.0067

In a second layout: results already given
Sequence	pre-steady-state target cleavage rate
GGAGACCUAAGUAUACAACCUACAACCUCA	0.00149 ± 0.0035
GGAGACCUAUGAAUACAACCUAGUACCACA	0.00134 ± 0.0072
GGAGUGCAUACUAUAGAACCUACUACCUCA	0.00125 ± 0.0023
